# PMC7078148
# Chains of the proteins cited; added tags and fusions are not shown. Residues count along the entry.
# UniProt P30405, residues 30-207: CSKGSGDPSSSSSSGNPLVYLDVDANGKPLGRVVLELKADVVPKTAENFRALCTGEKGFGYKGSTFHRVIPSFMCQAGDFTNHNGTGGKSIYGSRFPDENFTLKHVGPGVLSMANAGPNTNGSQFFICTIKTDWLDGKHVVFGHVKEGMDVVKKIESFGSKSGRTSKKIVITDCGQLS
# UniProt P29117, residues 30-206: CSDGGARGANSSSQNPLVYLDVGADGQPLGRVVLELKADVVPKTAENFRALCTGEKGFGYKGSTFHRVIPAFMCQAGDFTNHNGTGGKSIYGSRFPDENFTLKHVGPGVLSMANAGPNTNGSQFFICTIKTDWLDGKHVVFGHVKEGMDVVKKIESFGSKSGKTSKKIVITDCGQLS
# These are yes or no findings as the source states them, for the method shown. Some entries that bind do so weakly or less than the wild type.
# Experiments:
# [1] = target: human full length recombinant 17β-hydroxysteroid dehydrogenase type 10 protein (His tag) (human) (UniProt Q99714); test: co-IP; mix of the two recombinant proteins, 20 µg/ml each in PBS, 2 h at room temperature; precipitated with anti-17β-HSD10 or anti-cypD antibody and Protein A-sepharose; immunoblot for the other protein; both purified
# [2] = target: T1, 17β-hydroxysteroid dehydrogenase type 10 of human cerebrospinal fluid (human (endogenous in cerebrospinal fluid)) (UniProt Q99714); test: ELISA; semi-quantitative sandwich ELISA on human cerebrospinal fluid (controls, MCI-others, MCI-AD, ADD, FTLD); capture by anti-17β-HSD10 antibody, detection by anti-cypD antibody; values in percent of internal standards
# T1 sequence: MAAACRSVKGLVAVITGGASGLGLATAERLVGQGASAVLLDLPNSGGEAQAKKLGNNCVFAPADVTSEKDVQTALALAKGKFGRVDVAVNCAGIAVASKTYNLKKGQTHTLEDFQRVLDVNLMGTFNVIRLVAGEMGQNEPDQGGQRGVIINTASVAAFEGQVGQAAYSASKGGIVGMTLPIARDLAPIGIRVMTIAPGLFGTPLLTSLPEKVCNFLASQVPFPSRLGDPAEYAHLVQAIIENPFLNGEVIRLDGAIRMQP
# [3] = target: T2, 17β-hydroxysteroid dehydrogenase type 10 of rat brain mitochondria (rat (endogenous in brain mitochondria)) (UniProt O70351); test: ELISA; semi-quantitative sandwich ELISA on rat brain mitochondrial fraction (10 WT and 10 Tg McGill-R-Thy1-APP rats) with n-dodecyl β-D-maltoside; capture by anti-17β-HSD10 antibody, detection by anti-cypD or anti-Aβ 13-28 antibody; values in percent of internal standards
# T2 sequence: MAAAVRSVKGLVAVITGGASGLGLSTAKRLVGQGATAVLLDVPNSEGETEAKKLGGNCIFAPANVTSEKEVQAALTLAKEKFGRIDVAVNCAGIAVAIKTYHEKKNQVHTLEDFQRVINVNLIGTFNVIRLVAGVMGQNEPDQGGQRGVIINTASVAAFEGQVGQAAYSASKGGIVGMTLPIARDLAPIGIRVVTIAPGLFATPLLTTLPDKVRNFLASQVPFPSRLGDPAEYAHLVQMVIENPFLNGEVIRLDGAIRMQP
substance,measurement,setting,value
human full length cyclophilin D protein (His tag) (from UniProt P30405 30-207) (enzyme),binding,[1],binds
cyclophilin D of human cerebrospinal fluid (from UniProt P30405 30-207),binding,[2],binds
cyclophilin D of rat brain mitochondria (from UniProt P29117 30-206),binding,[3],binds
